Experimental data reported in patent US12514931B2, “Microsphere-drug combination” (UCL Business LTD, priority 2019, dated 2026).
Some of these results come from one statement about several compounds together.

Experiment: Loading of taxanes onto PLGA TIPS microspheres via antisolvent precipitation (drug loading efficiency, UV 229 nm)
Type: physicochemical
Procedure: A facile method was developed to load DTX and other taxanes such as paclitaxel and cabazitaxel onto TIPS microspheres via antisolvent precipitation (FIG. 1). 5 mg of PLGA TIPS microspheres were transferred into 20 ml clear Type 1B boroscilicate glass vials and sealed with a butyl injection stopper. 4.5 mL of ultrapure water was added to the vial and vortexed for 10 seconds. 0.5 ml of 0.1% (w/v) taxane in ethanol, or a formulation of docetaxel or paclitaxel matching Taxotere® or Taxol® was added using a 1 mL syringe with a 25G needle through the rubber stopper, when the vial was inverted. […]
Drug loading efficiency (DLE) of the taxane, such as DTX, onto the TIPS microspheres at each time-point was calculated according to Equation 1. The amount of free taxane left in the solution was measured by UV spectroscopy at the wavelength of 229 nm using a Nanodrop 2000c spectrophotometer (Thermo Scientific, Waltham, MA, USA).
• 1. […] An equivalent number of solid PLGA microspheres (size range of 250-350 μm) to the quantity of microspheres in 5 mg of dry TIPS PLGA microspheres were transferred into 20 ml clear Type 1B boroscilicate glass vials and sealed with a butyl injection stopper. […] Drug loading efficiency (DLE) of docetaxel (DTX) onto the TIPS microspheres at each time-point was calculated according to Equation 1. […]

| SMILES | docetaxel loaded onto the microspheres from the solution (formulation matching Taxotere (Tween 80/ethanol excipients), after 3 hrs of initiating mixing) [%] | paclitaxel loaded onto the microspheres from the solution (formulation matching Taxol (Cremophor EL/ethanol excipients), after 4 hrs of initiating mixing) [%] |
| --- | --- | --- |
| CC(=O)O[C@@]12CO[C@@H]1C[C@H](O)[C@@]1(C)C(=O)[C@H](O)C3=C(C)[C@@H](OC(=O)[C@H](O)[C@@H](NC(=O)OC(C)(C)C)c4ccccc4)C[C@@](O)([C@@H](OC(=O)c4ccccc4)[C@H]21)C3(C)C [docetaxel, Docetaxel] | < 10 |  |
| CC(=O)O[C@H]1C(=O)[C@@]2(C)[C@H]([C@H](OC(=O)c3ccccc3)[C@]3(O)C[C@H](OC(=O)[C@H](O)[C@@H](NC(=O)c4ccccc4)c4ccccc4)C(C)=C1C3(C)C)[C@]1(OC(C)=O)CO[C@@H]1C[C@@H]2O [paclitaxel] |  | < 10 |
